In paper PMC10208982, “Structural basis of catalytic activation in human splicing” (Nature, 2023) one finds binding data, which are given here for two molecules.

Protein sequences, listed by entry. Tags and fused reporters are not part of them.
UniProt Q13435: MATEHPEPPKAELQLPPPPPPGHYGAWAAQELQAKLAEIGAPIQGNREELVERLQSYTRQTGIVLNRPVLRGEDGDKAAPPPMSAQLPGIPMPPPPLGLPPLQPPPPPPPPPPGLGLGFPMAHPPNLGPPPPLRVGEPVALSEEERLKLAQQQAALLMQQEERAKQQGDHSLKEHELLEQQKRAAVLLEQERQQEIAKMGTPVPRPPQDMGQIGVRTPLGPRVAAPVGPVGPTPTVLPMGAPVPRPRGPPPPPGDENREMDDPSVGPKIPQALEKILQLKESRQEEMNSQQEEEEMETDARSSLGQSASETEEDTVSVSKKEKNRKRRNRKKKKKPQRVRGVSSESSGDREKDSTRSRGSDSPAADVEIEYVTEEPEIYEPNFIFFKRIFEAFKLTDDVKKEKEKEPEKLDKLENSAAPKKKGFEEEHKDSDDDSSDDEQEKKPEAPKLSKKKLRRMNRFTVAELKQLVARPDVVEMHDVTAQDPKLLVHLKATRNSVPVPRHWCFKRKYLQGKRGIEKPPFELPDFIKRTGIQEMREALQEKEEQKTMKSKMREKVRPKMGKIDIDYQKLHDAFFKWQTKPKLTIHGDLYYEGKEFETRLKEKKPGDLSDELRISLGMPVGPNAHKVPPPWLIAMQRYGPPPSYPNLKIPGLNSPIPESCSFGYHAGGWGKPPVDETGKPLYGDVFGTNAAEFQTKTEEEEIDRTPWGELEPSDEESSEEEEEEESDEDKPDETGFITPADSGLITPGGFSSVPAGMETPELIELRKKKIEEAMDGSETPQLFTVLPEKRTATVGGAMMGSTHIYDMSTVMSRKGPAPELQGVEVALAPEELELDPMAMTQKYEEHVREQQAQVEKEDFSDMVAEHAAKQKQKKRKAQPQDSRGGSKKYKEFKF
UniProt O75533: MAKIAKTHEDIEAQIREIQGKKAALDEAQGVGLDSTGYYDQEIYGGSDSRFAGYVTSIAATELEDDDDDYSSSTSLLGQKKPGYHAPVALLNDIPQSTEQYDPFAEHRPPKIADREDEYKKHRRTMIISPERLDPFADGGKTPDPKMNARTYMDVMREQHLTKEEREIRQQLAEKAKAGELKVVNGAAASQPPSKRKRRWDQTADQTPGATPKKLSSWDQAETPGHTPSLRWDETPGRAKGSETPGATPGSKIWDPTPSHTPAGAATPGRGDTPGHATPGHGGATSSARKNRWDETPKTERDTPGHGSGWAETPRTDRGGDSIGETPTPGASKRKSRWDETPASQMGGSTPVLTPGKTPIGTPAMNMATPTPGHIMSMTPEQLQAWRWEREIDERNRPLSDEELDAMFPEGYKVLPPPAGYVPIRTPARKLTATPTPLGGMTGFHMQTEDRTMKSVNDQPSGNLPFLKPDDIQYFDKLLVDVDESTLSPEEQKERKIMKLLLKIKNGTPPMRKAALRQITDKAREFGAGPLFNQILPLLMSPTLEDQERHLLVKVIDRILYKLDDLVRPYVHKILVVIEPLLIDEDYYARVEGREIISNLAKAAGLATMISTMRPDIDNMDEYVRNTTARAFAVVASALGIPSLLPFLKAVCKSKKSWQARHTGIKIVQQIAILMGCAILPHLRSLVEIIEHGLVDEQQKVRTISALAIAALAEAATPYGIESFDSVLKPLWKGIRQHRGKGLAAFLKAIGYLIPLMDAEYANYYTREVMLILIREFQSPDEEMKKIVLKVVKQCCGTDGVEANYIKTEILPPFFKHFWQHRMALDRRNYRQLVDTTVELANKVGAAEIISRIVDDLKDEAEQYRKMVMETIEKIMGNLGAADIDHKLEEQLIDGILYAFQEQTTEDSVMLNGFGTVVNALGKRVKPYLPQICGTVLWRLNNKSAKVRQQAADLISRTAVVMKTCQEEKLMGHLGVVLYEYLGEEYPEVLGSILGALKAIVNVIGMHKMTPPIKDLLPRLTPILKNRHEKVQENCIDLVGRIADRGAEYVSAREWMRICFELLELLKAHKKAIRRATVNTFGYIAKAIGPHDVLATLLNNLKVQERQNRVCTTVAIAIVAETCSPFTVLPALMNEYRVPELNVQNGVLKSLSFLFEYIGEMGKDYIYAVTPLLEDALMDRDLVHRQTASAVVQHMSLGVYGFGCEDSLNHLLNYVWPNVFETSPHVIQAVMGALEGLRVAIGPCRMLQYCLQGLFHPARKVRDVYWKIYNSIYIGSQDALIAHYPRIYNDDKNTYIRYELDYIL

These are yes or no findings as the source states them, for the method shown. Some results given as binding are weak or reduced against the parent protein; the word gives no strength.

Holding throughout (assay): cryo-EM structure; B^AQR spliceosome assembled on MINX-3×MS2 pre-mRNA in HeLa nuclear extract supplemented with recombinant IBC(K829A); MBP-MS2 affinity purification, glycerol gradient, cross-linked with 0.1% glutaraldehyde; core map about 2.9 Å
Assay [1] addresses SF3B2 (human (endogenous in HeLa)) (UniProt Q13435).
Assay [2] addresses T1, SF3A2 (human (endogenous in HeLa)) (UniProt Q15428).
T1 sequence: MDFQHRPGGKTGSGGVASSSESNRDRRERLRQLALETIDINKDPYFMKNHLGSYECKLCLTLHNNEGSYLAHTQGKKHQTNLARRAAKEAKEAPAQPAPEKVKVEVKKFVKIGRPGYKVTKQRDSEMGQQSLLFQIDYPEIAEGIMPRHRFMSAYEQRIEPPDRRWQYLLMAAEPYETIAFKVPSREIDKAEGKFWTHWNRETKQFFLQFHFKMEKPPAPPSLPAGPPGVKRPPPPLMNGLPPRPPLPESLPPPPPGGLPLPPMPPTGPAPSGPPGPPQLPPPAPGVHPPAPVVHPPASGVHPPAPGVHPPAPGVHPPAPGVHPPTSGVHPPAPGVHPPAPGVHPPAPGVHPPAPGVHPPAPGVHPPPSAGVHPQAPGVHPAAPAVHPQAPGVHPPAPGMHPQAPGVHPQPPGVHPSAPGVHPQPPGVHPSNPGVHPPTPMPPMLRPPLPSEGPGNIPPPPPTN

In assay [3] the target is T2, CWC22 (human (endogenous in HeLa)) (UniProt Q9HCG8).
T2 sequence: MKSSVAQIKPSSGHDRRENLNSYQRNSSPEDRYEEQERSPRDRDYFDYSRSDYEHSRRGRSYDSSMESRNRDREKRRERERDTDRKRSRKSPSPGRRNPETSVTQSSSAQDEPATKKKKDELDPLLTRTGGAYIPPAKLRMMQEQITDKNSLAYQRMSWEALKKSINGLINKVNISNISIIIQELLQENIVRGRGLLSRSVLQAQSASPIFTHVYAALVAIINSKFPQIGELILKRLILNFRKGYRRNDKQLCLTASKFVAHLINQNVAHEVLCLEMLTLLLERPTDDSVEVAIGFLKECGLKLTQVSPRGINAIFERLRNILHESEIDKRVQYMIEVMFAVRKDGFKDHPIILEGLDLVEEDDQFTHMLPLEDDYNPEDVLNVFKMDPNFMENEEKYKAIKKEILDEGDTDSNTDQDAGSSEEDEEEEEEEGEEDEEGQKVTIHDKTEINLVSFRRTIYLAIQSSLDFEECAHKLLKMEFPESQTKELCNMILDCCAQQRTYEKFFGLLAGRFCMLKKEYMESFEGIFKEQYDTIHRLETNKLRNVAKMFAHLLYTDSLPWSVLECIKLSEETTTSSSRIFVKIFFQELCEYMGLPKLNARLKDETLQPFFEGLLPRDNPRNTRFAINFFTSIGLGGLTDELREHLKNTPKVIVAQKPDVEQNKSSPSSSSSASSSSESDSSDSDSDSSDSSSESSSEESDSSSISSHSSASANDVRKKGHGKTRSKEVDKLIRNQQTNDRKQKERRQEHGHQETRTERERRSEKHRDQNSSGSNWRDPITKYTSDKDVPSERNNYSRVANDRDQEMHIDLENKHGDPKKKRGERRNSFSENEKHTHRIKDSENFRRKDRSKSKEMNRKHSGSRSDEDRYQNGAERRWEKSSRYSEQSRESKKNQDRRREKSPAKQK

In the case of SF3B1 (from UniProt O75533 1-1304), the binding result in assay [1] and in assay [2] was “binds” each time.

B1: PRP2 (enzyme, UniProt O60231 1-1041)
chain: MATPAGLERWVQDELHSVLGLSERHVAQFLIGTAQRCTSAEEFVQRLRDTDTLDLSGPARDFALRLWNKVPRKAVVEKPARAAEREARALLEKNRSYRLLEDSEESSEETVSRAGSSLQKKRKKRKHLRKKREEEEEEEASEKGKKKTGGSKQQTEKPESEDEWERTERERLQDLEERDAFAERVRQRDKDRTRNVLERSDKKAYEEAQKRLKMAEEDRKAMVPELRKKSRREYLAKREREKLEDLEAELADEEFLFGDVELSRHERQELKYKRRVRDLAREYRAAGEQEKLEATNRYHMPKETRGQPARAVDLVEEESGAPGEEQRRWEEARLGAASLKFGARDAASQEPKYQLVLEEEETIEFVRATQLQGDEEPSAPPTSTQAQQKESIQAVRRSLPVFPFREELLAAIANHQVLIIEGETGSGKTTQIPQYLFEEGYTNKGMKIACTQPRRVAAMSVAARVAREMGVKLGNEVGYSIRFEDCTSERTVLRYMTDGMLLREFLSEPDLASYSVVMVDEAHERTLHTDILFGLIKDVARFRPELKVLVASATMDTARFSTFFDDAPVFRIPGRRFPVDIFYTKAPEADYLEACVVSVLQIHVTQPPGDILVFLTGQEEIEAACEMLQDRCRRLGSKIRELLVLPIYANLPSDMQARIFQPTPPGARKVVVATNIAETSLTIEGIIYVLDPGFCKQKSYNPRTGMESLTVTPCSKASANQRAGRAGRVAAGKCFRLYTAWAYQHELEETTVPEIQRTSLGNVVLLLKSLGIHDLMHFDFLDPPPYETLLLALEQLYALGALNHLGELTTSGRKMAELPVDPMLSKMILASEKYSCSEEILTVAAMLSVNNSIFYRPKDKVVHADNARVNFFLPGGDHLVLLNVYTQWAESGYSSQWCYENFVQFRSMRRARDVREQLEGLLERVEVGLSSCQGDYIRVRKAITAGYFYHTARLTRSGYRTVKQQQTVFIHPNSSLFEQQPRWLLYHELVLTTKEFMRQVLEIESSWLLEVAPHYYKAKELEDPHAKKMPKKIGKTREELG
As for B1, the binding entry in assay [3] was “binds”.
